Results are given in words; binding and its absence hold for the method and conditions named. In cells and extracts the contact can be indirect. These calls come from enrichment with a bait or labelling near it, and not all partners need be listed.
Molecular target: ENDU-2::EGFP (C. elegans) (UniProt Q9GYM9)
Assay: affinity purification with mass spectrometry; ENDU-2::EGFP immunoprecipitated from EGFP knock-in day 1 adult worms after 1 h HS at 35 °C and about 2 h recovery; co-precipitated proteins by label-free quantitative MS (log2LFQ intensity >1)

By UniProt entry, the sequences of proteins in these tests, tags left out. Where a name states a change or a piece, a line headed by the entry shows the natural chain unless it says otherwise.
UniProt Q9GYM9: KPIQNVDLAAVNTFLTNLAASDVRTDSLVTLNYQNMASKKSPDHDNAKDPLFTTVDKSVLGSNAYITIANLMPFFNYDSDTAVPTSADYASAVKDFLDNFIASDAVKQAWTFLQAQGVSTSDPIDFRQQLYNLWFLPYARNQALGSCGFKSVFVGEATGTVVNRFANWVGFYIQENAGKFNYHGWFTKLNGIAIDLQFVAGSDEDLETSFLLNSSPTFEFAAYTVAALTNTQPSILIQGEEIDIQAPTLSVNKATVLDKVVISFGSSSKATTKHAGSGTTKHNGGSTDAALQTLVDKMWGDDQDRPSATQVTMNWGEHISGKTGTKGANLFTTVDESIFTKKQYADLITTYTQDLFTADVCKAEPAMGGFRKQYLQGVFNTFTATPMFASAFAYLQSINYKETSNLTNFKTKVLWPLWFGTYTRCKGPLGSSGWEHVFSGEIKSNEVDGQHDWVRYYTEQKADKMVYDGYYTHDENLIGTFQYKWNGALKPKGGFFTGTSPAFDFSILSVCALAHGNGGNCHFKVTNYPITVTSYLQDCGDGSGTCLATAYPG
UniProt P54812: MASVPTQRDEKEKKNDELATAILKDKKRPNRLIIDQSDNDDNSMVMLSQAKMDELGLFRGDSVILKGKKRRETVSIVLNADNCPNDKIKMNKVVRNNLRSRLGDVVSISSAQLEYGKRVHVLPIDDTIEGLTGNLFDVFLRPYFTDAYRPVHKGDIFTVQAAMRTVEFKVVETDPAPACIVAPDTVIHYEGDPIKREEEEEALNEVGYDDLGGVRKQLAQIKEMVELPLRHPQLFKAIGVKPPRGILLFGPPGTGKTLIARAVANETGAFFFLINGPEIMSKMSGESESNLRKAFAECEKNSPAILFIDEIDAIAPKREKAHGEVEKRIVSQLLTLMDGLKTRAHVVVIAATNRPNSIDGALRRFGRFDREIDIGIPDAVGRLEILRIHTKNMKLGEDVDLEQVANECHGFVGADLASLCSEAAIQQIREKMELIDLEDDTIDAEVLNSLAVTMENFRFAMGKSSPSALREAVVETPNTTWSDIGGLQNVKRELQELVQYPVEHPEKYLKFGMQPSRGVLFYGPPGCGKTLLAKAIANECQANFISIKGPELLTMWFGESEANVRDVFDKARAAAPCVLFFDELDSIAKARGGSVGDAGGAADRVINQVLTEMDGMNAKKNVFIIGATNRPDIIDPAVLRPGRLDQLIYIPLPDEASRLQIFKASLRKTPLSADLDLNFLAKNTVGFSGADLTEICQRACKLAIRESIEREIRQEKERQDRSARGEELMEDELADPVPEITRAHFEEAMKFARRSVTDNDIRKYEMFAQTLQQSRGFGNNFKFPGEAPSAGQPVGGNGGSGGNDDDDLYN
UniProt P41877: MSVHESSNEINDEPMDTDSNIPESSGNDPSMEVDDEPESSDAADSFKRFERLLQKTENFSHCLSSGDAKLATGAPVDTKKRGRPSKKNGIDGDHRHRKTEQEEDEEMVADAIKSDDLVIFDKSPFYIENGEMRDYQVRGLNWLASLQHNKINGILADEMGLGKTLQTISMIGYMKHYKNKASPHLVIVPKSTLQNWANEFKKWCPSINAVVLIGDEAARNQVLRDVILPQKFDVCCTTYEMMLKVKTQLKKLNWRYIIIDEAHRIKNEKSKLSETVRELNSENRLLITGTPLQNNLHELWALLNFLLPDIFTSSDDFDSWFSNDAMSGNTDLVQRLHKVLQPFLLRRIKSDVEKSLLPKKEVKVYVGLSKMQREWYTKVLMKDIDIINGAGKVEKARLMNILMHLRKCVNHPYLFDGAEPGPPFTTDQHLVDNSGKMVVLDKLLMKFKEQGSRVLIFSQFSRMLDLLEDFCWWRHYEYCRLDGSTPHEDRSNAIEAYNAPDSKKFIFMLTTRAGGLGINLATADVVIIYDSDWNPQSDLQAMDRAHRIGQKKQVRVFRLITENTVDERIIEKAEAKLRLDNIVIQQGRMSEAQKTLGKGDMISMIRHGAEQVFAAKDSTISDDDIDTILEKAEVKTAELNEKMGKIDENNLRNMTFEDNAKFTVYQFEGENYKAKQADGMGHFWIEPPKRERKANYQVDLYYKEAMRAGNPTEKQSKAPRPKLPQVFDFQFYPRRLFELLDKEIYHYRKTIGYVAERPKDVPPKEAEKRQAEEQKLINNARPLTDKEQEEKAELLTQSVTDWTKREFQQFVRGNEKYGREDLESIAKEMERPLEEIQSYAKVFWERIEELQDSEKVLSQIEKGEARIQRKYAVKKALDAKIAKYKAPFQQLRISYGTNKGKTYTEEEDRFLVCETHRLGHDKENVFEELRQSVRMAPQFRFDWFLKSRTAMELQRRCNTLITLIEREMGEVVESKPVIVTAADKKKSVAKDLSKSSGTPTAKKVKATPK
UniProt Q9N5K2: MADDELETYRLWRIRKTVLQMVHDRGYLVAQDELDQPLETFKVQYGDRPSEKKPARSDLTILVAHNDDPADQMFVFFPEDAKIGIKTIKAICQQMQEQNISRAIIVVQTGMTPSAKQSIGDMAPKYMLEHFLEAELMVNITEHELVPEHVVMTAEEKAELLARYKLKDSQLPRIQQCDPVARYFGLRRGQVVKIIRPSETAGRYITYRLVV
UniProt Q9N3C9: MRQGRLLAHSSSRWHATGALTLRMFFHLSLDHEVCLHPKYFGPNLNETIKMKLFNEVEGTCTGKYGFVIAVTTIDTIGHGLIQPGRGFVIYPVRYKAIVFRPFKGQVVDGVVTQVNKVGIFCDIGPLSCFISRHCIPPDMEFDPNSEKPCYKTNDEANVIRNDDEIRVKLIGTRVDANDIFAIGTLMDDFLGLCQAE
UniProt Q10578: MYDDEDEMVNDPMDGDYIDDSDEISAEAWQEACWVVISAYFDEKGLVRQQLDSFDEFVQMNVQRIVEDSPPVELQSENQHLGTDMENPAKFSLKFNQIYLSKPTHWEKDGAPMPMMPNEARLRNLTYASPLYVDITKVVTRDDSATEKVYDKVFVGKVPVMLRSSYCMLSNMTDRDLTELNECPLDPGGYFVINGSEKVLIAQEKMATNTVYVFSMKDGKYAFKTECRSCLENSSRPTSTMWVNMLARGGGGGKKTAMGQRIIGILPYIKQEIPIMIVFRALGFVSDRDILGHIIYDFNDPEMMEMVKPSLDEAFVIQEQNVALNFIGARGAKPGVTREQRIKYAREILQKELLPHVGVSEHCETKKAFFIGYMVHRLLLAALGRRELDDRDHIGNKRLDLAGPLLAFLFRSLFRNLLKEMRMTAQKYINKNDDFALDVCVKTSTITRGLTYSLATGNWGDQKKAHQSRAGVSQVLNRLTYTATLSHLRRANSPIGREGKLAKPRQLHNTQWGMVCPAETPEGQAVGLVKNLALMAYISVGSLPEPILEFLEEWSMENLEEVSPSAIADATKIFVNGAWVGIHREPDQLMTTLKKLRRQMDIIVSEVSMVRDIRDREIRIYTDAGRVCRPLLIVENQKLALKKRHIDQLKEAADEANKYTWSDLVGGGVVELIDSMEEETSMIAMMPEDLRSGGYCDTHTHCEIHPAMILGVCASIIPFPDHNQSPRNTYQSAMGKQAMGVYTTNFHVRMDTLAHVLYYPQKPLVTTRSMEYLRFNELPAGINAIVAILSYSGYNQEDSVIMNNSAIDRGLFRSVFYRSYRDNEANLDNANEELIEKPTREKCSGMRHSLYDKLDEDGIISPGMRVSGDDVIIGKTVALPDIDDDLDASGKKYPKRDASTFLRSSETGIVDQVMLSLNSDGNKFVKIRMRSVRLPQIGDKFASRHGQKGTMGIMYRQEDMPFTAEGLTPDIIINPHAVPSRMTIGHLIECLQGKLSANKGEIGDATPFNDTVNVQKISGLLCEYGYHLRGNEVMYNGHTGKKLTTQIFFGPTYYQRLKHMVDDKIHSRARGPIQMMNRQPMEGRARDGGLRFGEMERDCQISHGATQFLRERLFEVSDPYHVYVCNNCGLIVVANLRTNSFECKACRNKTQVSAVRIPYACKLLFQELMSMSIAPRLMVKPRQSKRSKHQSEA
UniProt G5EF87: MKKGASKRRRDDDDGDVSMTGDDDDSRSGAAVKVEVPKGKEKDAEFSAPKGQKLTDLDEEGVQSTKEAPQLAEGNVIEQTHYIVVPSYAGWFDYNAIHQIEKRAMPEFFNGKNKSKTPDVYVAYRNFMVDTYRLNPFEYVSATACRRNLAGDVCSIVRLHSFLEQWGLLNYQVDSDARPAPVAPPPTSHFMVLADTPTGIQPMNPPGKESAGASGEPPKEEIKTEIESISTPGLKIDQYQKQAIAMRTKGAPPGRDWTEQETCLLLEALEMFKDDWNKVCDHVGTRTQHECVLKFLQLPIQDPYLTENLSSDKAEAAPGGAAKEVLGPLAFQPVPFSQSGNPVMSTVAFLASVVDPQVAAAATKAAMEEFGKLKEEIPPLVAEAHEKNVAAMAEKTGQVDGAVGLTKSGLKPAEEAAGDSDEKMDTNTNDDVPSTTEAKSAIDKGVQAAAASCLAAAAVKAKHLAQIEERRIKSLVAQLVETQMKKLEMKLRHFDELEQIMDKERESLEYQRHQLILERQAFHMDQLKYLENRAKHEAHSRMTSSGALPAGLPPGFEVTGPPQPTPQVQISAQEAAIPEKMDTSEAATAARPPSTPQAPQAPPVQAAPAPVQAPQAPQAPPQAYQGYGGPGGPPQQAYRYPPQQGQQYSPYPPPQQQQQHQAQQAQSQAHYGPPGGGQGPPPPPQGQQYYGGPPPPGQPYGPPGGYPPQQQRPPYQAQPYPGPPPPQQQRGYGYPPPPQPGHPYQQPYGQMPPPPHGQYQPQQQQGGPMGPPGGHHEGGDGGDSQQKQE
UniProt G5EF53: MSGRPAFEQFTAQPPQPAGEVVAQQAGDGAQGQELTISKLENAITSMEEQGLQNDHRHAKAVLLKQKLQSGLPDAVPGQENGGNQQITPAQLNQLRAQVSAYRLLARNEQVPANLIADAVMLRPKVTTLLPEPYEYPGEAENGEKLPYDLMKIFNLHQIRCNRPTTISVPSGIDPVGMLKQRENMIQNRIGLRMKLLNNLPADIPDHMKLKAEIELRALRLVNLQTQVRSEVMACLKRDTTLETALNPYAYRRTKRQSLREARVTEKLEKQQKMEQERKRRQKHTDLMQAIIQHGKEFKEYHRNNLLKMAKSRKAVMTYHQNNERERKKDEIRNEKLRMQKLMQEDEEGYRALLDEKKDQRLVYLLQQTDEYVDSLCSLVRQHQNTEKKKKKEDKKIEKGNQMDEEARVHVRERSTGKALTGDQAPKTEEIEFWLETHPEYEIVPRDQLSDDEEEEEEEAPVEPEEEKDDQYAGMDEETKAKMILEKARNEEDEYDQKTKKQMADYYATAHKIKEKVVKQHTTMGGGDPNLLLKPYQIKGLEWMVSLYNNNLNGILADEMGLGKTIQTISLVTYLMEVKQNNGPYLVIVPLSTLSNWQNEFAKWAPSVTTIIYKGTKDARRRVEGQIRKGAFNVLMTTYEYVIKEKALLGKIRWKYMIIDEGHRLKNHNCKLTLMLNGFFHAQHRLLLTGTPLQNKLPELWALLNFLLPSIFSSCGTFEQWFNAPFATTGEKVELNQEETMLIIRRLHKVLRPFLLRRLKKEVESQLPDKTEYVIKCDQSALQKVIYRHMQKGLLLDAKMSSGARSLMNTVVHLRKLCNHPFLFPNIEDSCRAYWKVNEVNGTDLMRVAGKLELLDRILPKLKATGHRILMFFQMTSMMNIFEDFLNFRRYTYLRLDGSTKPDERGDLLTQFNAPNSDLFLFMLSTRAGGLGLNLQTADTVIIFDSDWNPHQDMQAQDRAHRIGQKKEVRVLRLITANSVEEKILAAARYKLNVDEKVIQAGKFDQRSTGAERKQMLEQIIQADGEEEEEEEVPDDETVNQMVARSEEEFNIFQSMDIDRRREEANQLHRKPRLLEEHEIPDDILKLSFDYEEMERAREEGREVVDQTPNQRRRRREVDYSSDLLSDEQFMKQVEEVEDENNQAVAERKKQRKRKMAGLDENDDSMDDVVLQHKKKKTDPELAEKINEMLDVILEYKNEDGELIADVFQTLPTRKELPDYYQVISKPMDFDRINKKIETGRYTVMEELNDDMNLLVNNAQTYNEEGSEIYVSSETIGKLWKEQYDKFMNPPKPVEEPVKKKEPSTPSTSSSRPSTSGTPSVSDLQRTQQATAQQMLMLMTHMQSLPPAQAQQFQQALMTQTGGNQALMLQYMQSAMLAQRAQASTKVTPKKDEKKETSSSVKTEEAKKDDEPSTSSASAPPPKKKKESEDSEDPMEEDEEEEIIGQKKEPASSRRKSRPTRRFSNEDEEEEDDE

| binding | Molecule |
| --- | --- |
| binds | ENPL-1 (Ce. HSP90B1) (protein, UniProt Q22235 24-760) EDEIEDAPKETKEETREEDSIKLDGLSVSQIKELRSKAEKHEFQAEVNRMMKLIINSLYRNKEIFLRELISNASDALDKIRLLSLTDPEQLRETEEMSVKIKADRENRLLHITDTGVGMTRQDLINNLGTIARSGTSEFLSKLMDTATSSDQQQDLIGQFGVGFYAAFLVADRVVVTTKNNDDDQYIWESDSASFTISKDPRGNTLKRGTQITLYLKEEAADFLEPDTLKNLVHKYSQFINFDIFLWQSKTEMVEEAVEEEPATTEDGAVEEEKEEKKTKKVEKTTWDWEKVNNVKPIWMRKPNQVEEDEYKQFYKSITKDSEEPLSHVHFSAEGEVSFRSILYVPKKSPNDMFQNYGKVIENIKLYVRRVFITDDFADMLPKYLSFIRGIVDSDDLPLNVSRENLQQHKLLKVIKKKLVRKVLDMLKKLDGAQFDDFWSEFSTNIKLGVMEDPSNRMRLAKLLRFQSSNDADKTTTLAAYVERMKEKQDAIYYMAGTSRKEVETSPFVERLIAKGYEVLFLTEAVDEYCIQAMPEYESKKFQNVAKEGVTIDDGEKAKEAHKGLEEEFKPLTDWLKETALKDLIEKAVVSQRLVKSPSALVASSYGWSGNMERIMKSQAYAKAKDPTQDFYATQKKTFEINPRHPVIKELLKRVTASEEDTTAASTAKLLFETATLRSGFSLQDQVGFADRIEAVLRQSLDVSQDAQVETEQHIEEAEPEPEAAEETTIEEEHSEL |

Molecular target: ENDU-2::EGFP (C. elegans) (UniProt Q9GYM9)
Assay: as above
Remark: another data set of the same source

| Molecule | binding |
| --- | --- |
| CDC-48.2 (Ce. P97) (from UniProt P54812 1-810) | binds |
| ISW-1 (from UniProt P41877 1-1009) | binds |
| RPB-5 (from UniProt Q9N5K2 1-211) | binds |
| RPB-7 (from UniProt Q9N3C9) | binds |

Now from value to molecule:

| binding | Molecule |
| --- | --- |
| binds | RPB-2 (Pol II subunit B) (from UniProt Q10578 1-1193) |
| binds | SWSN-1 (from UniProt G5EF87 1-789) |
| binds | SWSN-4 (from UniProt G5EF53 1-1474) |

— paper PMC10345090
